PubChem BioAssay AID1347076 (National Center for Advancing Translational Sciences (NCATS), 2019)
Screen size: about 400,000 compounds; about 13,000 (3.2%) were called active. The inconclusive results got no clear call from the source; some entries with a clear call stand among them for comparison. The call rests on the fitted dose curve; in most records, active means well fitted cell-killing curve with a large enough effect; inconclusive means small, poorly fitted or top-dose-only effect, or effect the other way; inactive means flat fitted curve, though single readings scatter. A potency beside an inconclusive call is a rough fit, not a confirmed value.

assay: qHTS assay for MDR1-selective chemotherapeutics: Primary screen using the drug-selected MDR subline cells KB-V1; conditions: KB-V1 MDR cells viability, CellTiter-Glo, 72 h; activity change, negative = cytotoxicity: at 46.1 µM (top of the series); further: nearly all actives have a fitted effect of over 60% in size
In short: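 Drug-selected KB-V1 cells, grown in DMEM lacking phenol red with 10% FBS, receive compound titrations; after three days at 37 degrees C, surviving cell ATP is quantified by CellTiter-Glo luminescence and responses normalized and curve-fitted.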
On the % scale 0 is the no-effect control and ±100 the full control effect; potency means the concentration at half of the fitted maximal effect.

| Structure (SMILES) | Potency | activity change, negative = cytotoxicity |
| --- | --- | --- |
| CCOc1cccc(C(c2c(C)n(C)n(-c3ccccc3)c2=O)c2c(C)n(C)n(-c3ccccc3)c2=O)c1OC | inconclusive: 29.1 µM [rising, single point] |  |
| COc1ccc2nc(NC(=O)CCc3cc(OC)c(OC)c(OC)c3)sc2c1 | active: 20.6 µM |  |
| O=C(CCN1C(=O)/C(=C/c2cccs2)SC1=S)Nc1cccc(O)c1 | inactive |  |
| CCOc1ncccc1C(=O)N(C)CC1COc2ccccc2O1 (configuration not stated) | inconclusive: 0.0065 µM [cytotoxic, full curve, poor fit] |  |
| COc1ccc(C(=O)Nc2cc(C)nn2-c2nc3ccccc3[nH]2)c(OC)c1 | inactive |  |
| CCOc1ccccc1OCCOCCN1CCN(Cc2ccccc2)CC1 | inconclusive: 16.4 µM [cytotoxic, partial curve] |  |
| OCc1nnc2c3ccccc3c(-c3ccccc3)nn12 | inconclusive: 25.9 µM [cytotoxic, single point] |  |
| CCCCNC(=O)c1nn2c(C(F)(F)F)cc(-c3ccc(OC)cc3)nc2c1Br | inactive |  |
| COc1ccc(NC(=O)Cc2coc3cc(C)ccc23)cc1S(=O)(=O)N1CCOCC1 | active: 18.4 µM |  |
| O=C(Nc1ccc(Cl)cn1)C1COc2ccccc2O1 (configuration not stated) | inconclusive: 29.1 µM [cytotoxic, single point] |  |
| COc1ccc(N(C(=O)c2snc(C(N)=O)c2N)C(C(=O)NC2CCCC2)c2cc(OC)ccc2OC)cc1 (configuration not stated) | inconclusive: 8.2 µM [cytotoxic, partial curve, poor fit] |  |
| C/C(=N\NC(=O)COc1cccc2ccccc12)c1cccs1 | inconclusive: 20.6 µM [cytotoxic, single point] |  |
| COCCn1c(SCc2nc(N)nc(Nc3ccccc3C)n2)nc2ccccc2c1=O | active: 8.2 µM |  |
| COc1ccccc1CN(C)CC(=O)Nc1ccccc1-c1ccccc1 | inconclusive: 18.4 µM [cytotoxic, partial curve, poor fit] |  |
| O=C(Nc1ccc(F)cc1F)N1CCCN(CCOc2ccccc2)CC1 | inconclusive: 29.1 µM [cytotoxic, single point] |  |
| N#Cc1c(-c2ccc3c(c2)OCO3)csc1N | inconclusive: 29.1 µM [cytotoxic, single point] |  |
| COc1ccccc1C1SCCN1S(=O)(=O)c1cccc(C(F)(F)F)c1 (configuration not stated) | active: 16.4 µM |  |
| CCOC(=O)c1c(NC(=O)C2C3C=CC(CC3)C2C(=O)O)sc(C)c1C (configuration not stated) | inactive |  |
| Cc1ccc(C)c(Cn2nnc3c(=O)[nH]c(C4CCN(S(=O)(=O)c5ccc(S(=O)(=O)N(C)C)cc5)CC4)nc32)c1 | inactive |  |
| S=C(NCc1ccncc1)Nc1ccc(Cl)cc1 | inconclusive: 23.1 µM [cytotoxic, partial curve, poor fit] |  |
| OC(CN1C2=NCCCN2c2ccccc21)c1ccc(Cl)cc1 (configuration not stated) | inactive |  |
| NC(CCc1ccccc1)c1csc(Nc2ccccn2)n1 (configuration not stated) | inconclusive: 29.1 µM [cytotoxic, single point] |  |
| OCCNCC(O)Cn1c2ccccc2c2ccccc21 (configuration not stated) | inactive |  |
| CCN1C(=C(C#N)C#N)C=Cc2ccccc21 | inconclusive: 29.1 µM [rising, single point] |  |

| Structure (SMILES) | Potency | activity change, negative = cytotoxicity |
| --- | --- | --- |
| O=C(NNC(=O)c1cc(-c2ccc(Cl)cc2Cl)nc2ccccc12)Nc1ccccc1 | active: 23.1 µM |  |
| COc1ccc(-c2cc(CC3(C(=O)O)CCN(C(=O)OC(C)(C)C)CC3)on2)c(OC)c1 | inconclusive: 16.4 µM [rising, partial curve] |  |
| O=C(Cn1c(=S)[nH]c2ccccc21)c1ccccc1 | inconclusive: 18.4 µM [cytotoxic, partial curve, poor fit] |  |
| COc1ccc(-c2cc(C(=O)NNC(=S)NC(=O)c3c(-c4ccccc4)noc3C)[nH]n2)cc1 | inconclusive: 6.51 µM [cytotoxic, full curve, poor fit] |  |
| CCCCCOc1c(Cl)cc(C(=O)N(Cc2ccc(C)o2)C2CCS(=O)(=O)C2)cc1Cl (configuration not stated) | inconclusive: 32.6 µM [cytotoxic, single point] |  |
| COc1ccc(C)cc1NC(=O)c1c(C)oc2ncn(CC(C)C)c(=O)c12 | inconclusive: 29.1 µM [cytotoxic, single point] |  |
| COc1ccccc1NC(=O)C(=O)NCC1CCCN1S(=O)(=O)c1cccs1 (configuration not stated) | active: 4.61 µM |  |
| CCCn1cc(S(=O)(=O)c2ccccc2)c(=O)c2cc(F)c(N3CCCC(C)C3)cc21 (configuration not stated) | inactive |  |
| CN(CC(=O)N1CCCCC1)S(=O)(=O)c1cccc2nsnc12 |  | inconclusive: 0.641% |
| COc1ccccc1N1CCN(C(=O)CN(c2ccc(C)c(C)c2)S(C)(=O)=O)CC1 | inconclusive: 29.1 µM [cytotoxic, partial curve, poor fit] |  |
| Cc1cc(C2CCCCC2)n(O)c(=O)c1 | inconclusive: 0.291 µM [cytotoxic, partial curve, poor fit] |  |
| Cc1cccc(NC(=O)CNC(=O)CSc2nnc(C(F)(F)F)n2C)c1C | inactive |  |
| O=C(NCc1cccc(Cl)c1)c1ccc(-n2cncn2)c2ccoc12 | inactive |  |
| CC1=C(C(=O)Nc2ccccc2)C(c2cccnc2)n2nc(SCc3ccccc3Cl)nc2N1 (configuration not stated) | inactive |  |
| Cc1sc2ncn(CC(=O)NCCCN3CC(C)CC(C)C3)c(=O)c2c1S(=O)(=O)N1CC(C)CC(C)C1 (configuration not stated) | inconclusive: 18.4 µM [rising, single point] |  |
| CC1CN(C(=O)CCS(=O)(=O)c2ccccc2)CC(C)O1 (configuration not stated) | inactive |  |
| O=c1[nH]c(=S)[nH]c2nccnc12 | inactive |  |
| Cc1ccc(S(=O)(=O)CC(=O)Nc2sc3c(c2C#N)CCCC3)cc1 | inactive |  |
| COCCN1Cc2cccc(C(=O)NCc3ccc4c(c3)OCO4)c2C1=O | active: 4.11 µM |  |
| COC(=O)c1ccc(C(=O)OC)c(NC(=O)COC(=O)CCOc2ccc(C)cc2)c1 | inactive |  |
| O=C(Nc1ccc(Cl)cc1)N1CCC(c2nc(-c3ccc(F)cc3)no2)CC1 | inconclusive: 35.5 µM [cytotoxic, single point] |  |
| C=Cn1c(N2CCOCC2)nc2c1c(=O)[nH]c(=O)n2C | inconclusive: 29.1 µM [cytotoxic, single point] |  |
| CCCNC(=O)c1cc2c(c(-c3cccc(-c4ccc(F)cc4)c3)n1)[C@H](CCO)N(S(=O)C(C)(C)C)C2 (some centres not stated) | inconclusive: 29.1 µM [cytotoxic, single point] |  |
| COc1ccc(-c2cn3c(C)c(C(=O)Nc4cccc(C)n4)sc3n2)cc1 | active: 20.6 µM |  |

Rewritten with bars between the fields: 2 of the compounds above
Structure (SMILES) | Potency | activity change, negative = cytotoxicity
Cc1cc(C2CCCCC2)n(O)c(=O)c1 | inconclusive: 0.291 µM [cytotoxic, partial curve, poor fit] | 
Cc1cccc(NC(=O)CNC(=O)CSc2nnc(C(F)(F)F)n2C)c1C | inactive | 

Next part:

| Structure (SMILES) | Potency | activity change, negative = cytotoxicity |
| --- | --- | --- |
| COC(=O)[C@@]1(Sc2ccc(C)cc2)CC(=O)N(C(=O)CCc2ccccc2)[C@@H]1c1ccccc1 | inactive |  |
| COc1ccc(CN2CCCN(S(=O)(=O)c3ccc(Br)cc3)CC2)cc1 | inactive |  |
| O=C(Nc1ccc(N2CCN(C(=O)c3ccccc3)CC2)cc1)c1ccc([N+](=O)[O-])o1 | inconclusive: 2.91 µM [cytotoxic, full curve, poor fit] |  |
| CCOc1ccc(OCCN2C(=O)c3ccccc3C2=O)cc1 | inactive |  |
| Cc1cc(=O)[nH]c(SCC(=O)Nc2ccnc3ccccc23)n1 | inactive |  |
| O=[N+]([O-])c1cccc(C(=Nc2ccccc2Cl)NO)c1 | inconclusive: 29.1 µM [cytotoxic, single point] |  |
| O=C(CCNS(=O)(=O)c1cccc2nonc12)NC1CCCc2ccccc21 (configuration not stated) | active: 23.1 µM |  |
| CCNC(C(=O)c1c[nH]c2c(CC)cccc12)c1ccccc1 (configuration not stated) | inconclusive: 11.6 µM [cytotoxic, partial curve] |  |
| C=CCNc1nnc(SC2CC(=O)N(c3ccc(OCCC)cc3)C2=O)s1 (configuration not stated) | inconclusive: 29.1 µM [cytotoxic, single point] |  |
| CCNC(=O)c1ccc(=O)n(Cc2ccc(Cl)cc2Cl)c1 | inconclusive: 25.9 µM [cytotoxic, partial curve, poor fit] |  |
| Cc1cccc(-c2noc(-c3ccc(Cl)cc3[N+](=O)[O-])n2)c1 | inconclusive: 20.6 µM [cytotoxic, partial curve] |  |
| N=c1c2c(-c3ccccc3)c(-c3ccccc3)n(Cc3ccco3)c2ncn1CCCn1ccnc1 | active: 16.4 µM |  |
| Cc1cccnc1C(NC(=O)C1CCN(CCCc2ccccc2)CC1)c1ccc(Cl)cc1 (configuration not stated) | inactive |  |
| COc1ccc(-c2cc(-c3nnc(COC(=O)C4CC4C)o3)c3ccccc3n2)cc1OC (configuration not stated) | inconclusive: 4.61 µM [cytotoxic, full curve] |  |
| O=C(CN1CCN(c2ccccn2)CC1)Nc1nc2ccccc2s1 | inconclusive: 14.6 µM [cytotoxic, single point] |  |
| CCOC(=O)c1ccc(NC(=O)CN2CCN(Cc3ccccc3)CC2)cc1 | inconclusive: 23.1 µM [cytotoxic, partial curve, poor fit] |  |
| COc1ccc(C)cc1NC(=O)CC1COc2ccccc2O1 (configuration not stated) | inactive |  |
| CNC(=O)c1sccc1SCc1c(Cl)cccc1Cl | inconclusive: 18.4 µM [cytotoxic, single point] |  |
| Cc1ccc(C)c(NC(NC(=O)c2cccnc2)C(Cl)(Cl)Cl)c1 (configuration not stated) | inactive |  |
| CCCCn1c(N)c(N(CCOC)C(=O)COC(=O)CCOc2ccccc2)c(=O)[nH]c1=O |  | inconclusive: 41.3% |
| CCCCn1nnnc1C(c1ccccc1)N1CCN(c2cc(C)ccc2C)CC1 (configuration not stated) | inconclusive: 8.2 µM [cytotoxic, partial curve] |  |
| CCOC(=O)c1cocc1C(=O)O | inconclusive: 16.4 µM [cytotoxic, single point] |  |
| CC(NC(=S)Nc1ccc(S(N)(=O)=O)cc1)c1ccc2c(c1)OCO2 (configuration not stated) | inconclusive: 3.26 µM [cytotoxic, partial curve, poor fit] |  |
| CCN(CC)C(=O)c1ccc(NS(=O)(=O)c2ccc(/C=C/C(=O)O)cc2)cc1 | inactive |  |
